Results are given in words; binding and its absence hold for the method and conditions named. Binding seen in cells or lysates may run through a third protein. Some binding calls cover weakened binding; strength is not graded here.
Assays:
[1] = molecular target: specificity protein 1 (Sp1) (human (endogenous in SH-SY5Y)) (UniProt P08047); assay: co-IP; 1500 ug SH-SY5Y lysate immunoprecipitated overnight at 4 C with 3 ug anti-Sp1 or anti-HIF-1 (normal IgG as negative control), blotted with anti-HDAC9; cells under control conditions or at 72 h after OGD/Rx
[2] = molecular target: hypoxia-inducible factor 1 (HIF-1) (human (endogenous in SH-SY5Y)) (UniProt Q16665); assay: as above

Chains of the proteins cited; added tags and fusions are not shown.
UniProt P08047: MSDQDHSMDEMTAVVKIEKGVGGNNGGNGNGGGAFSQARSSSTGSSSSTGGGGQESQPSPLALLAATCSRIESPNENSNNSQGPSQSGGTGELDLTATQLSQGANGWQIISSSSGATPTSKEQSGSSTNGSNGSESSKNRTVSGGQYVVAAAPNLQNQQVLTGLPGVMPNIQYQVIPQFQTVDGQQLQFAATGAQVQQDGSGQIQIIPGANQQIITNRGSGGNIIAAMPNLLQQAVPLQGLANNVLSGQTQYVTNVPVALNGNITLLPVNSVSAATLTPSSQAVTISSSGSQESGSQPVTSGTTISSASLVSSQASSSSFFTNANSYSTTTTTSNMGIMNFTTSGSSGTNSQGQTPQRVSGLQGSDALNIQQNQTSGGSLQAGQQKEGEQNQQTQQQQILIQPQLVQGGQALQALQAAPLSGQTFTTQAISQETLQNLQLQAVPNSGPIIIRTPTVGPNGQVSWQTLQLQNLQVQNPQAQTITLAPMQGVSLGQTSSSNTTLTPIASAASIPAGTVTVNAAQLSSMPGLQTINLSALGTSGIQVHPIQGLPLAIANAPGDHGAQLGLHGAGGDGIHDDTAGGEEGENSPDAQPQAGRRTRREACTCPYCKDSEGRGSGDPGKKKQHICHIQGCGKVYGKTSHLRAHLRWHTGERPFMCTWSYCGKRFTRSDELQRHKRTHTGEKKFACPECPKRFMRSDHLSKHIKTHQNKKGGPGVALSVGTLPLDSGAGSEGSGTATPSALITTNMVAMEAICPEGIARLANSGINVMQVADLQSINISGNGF
UniProt Q16665: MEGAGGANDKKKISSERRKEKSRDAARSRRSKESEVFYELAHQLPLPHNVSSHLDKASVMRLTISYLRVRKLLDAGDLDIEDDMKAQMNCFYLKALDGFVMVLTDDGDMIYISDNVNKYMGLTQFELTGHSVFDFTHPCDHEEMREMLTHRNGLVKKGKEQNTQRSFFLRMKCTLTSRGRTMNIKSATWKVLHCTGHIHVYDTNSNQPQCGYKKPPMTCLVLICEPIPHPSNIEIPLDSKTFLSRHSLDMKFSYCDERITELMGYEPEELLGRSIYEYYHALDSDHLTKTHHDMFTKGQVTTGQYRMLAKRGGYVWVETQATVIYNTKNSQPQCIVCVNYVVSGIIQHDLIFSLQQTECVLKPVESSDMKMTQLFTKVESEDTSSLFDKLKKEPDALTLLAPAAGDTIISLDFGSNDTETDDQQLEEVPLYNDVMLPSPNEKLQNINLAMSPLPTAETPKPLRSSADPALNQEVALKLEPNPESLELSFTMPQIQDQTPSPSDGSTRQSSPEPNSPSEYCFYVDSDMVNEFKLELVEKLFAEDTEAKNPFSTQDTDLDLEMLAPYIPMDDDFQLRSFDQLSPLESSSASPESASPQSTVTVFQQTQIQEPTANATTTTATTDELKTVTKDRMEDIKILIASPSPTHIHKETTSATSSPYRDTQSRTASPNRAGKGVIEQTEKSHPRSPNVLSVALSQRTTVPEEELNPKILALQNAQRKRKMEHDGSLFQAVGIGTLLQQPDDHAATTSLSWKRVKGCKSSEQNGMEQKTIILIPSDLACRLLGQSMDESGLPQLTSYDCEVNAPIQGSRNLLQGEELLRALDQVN
UniProt Q9UKV0: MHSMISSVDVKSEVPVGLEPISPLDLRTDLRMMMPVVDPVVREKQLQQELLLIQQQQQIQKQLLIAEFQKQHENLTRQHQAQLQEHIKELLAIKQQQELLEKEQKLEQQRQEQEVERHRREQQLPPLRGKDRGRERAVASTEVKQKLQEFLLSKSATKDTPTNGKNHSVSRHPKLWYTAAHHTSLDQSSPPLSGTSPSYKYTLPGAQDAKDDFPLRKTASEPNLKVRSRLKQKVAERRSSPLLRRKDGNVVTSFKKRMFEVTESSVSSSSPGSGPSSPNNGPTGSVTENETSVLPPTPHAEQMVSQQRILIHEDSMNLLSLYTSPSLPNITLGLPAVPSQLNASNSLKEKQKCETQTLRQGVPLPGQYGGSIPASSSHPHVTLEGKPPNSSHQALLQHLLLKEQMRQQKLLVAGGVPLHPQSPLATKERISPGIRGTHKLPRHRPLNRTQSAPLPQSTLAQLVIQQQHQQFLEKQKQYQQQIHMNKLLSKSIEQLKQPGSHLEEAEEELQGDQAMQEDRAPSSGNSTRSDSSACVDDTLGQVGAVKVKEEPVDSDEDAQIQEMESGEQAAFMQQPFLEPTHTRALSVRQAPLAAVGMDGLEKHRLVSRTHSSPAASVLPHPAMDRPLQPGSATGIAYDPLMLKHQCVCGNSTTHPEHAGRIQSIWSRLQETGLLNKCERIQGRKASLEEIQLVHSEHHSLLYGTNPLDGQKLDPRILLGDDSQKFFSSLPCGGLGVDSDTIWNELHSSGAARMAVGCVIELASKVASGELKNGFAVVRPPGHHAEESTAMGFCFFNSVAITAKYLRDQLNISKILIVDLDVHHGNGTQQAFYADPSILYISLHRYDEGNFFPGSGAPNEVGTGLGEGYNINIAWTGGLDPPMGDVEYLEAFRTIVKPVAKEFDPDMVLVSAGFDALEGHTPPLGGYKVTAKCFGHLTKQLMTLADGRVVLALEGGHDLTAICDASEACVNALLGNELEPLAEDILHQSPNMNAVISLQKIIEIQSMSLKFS

binding [1]: binds
binding [2]: binds
Substance: histone deacetylase 9 (HDAC9) (from UniProt Q9UKV0 1-1011)
